Reference: the supplement of paper PMC10331698
± gives the standard deviation of the averaged measurements. Most values lie at the level of the controls, where differences are scatter.

Assays:
Assay in all cases: level (log10 ratio to DMSO vehicle control); higher = higher biomarker level / cell amount than vehicle control
[1] = compound: FC(F)(F)C(F)(F)C(F)(F)C(F)(F)C(F)(F)C(F)(F)C(F)(F)CCI [1-Iodo-1H,1H,2H,2H-perfluorononane]; conditions: in DMSO
Description: (§1)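 BioMAP Diversity Plus panel of 12 human primary cell co-culture systems (3C, 4H, LPS, SAg, BT, BF4T, BE3C, CASM3C, HDF3CGF, KF3CT, MyoF, Mphg). Compounds were added 1 h before stimulation and left for 24 h (MyoF 48 h; BT 72 h for soluble read-outs or 6 d for IgG). Biomarkers were read by ELISA, cytotoxicity by SRB, PBMC viability and proliferation by Alamar Blue. Each well value was divided by the mean of 8 DMSO control wells on the same plate and log10 transformed; duplicate blinded samples were tested at 4 concentrations.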

[2] = compound: NC(=O)C(F)(F)C(F)(F)C(F)(F)C(F)(F)C(F)(F)C(F)(F)C(F)(F)F [Perfluorooctanamide]; conditions: 2200 nM; in DMSO
Description: as §1

[3] = compound: C=CC(=O)OCC(F)(F)C(F)(F)C(F)(F)C(F)(F)COC(=O)C=C [1H,1H,6H,6H-Perfluorohexane-1,6-diol diacrylate]; conditions: 2200 nM; in DMSO
Description: as §1

[4] = compound: FC(F)C(F)(F)COCC1CO1 [((2,2,3,3-Tetrafluoropropoxy)methyl)oxirane]; conditions: 2200 nM; in DMSO
Description: as §1

[5] = compound: O=C(O)C(F)(F)C(F)(F)C(F)(F)C(F)(F)C(F)(F)C(F)(F)C(F)(F)C(F)F [9-H-Perfluorononanoic acid]; conditions: 2200 nM; in DMSO
Description: as §1

[6] = compound: FC(F)(F)C(F)(F)C(F)(F)C(F)(F)C(F)(F)C(F)(F)C(F)(F)I [1-Iodopentadecafluoroheptane]; conditions: in DMSO
Description: as §1

[7] = compound: O=S(=O)(Cl)C(F)(F)C(F)(F)C(F)(F)C(F)(F)C(F)(F)C(F)(F)C(F)(F)C(F)(F)F [Perfluoro-1-octanesulfonyl chloride]; conditions: 2200 nM; in DMSO
Description: as §1

[8] = compound: OCCC(F)(F)C(F)(F)C(F)(F)C(F)(F)C(F)(F)C(F)(F)C(F)(F)C(F)(F)F [8:2 Fluorotelomer alcohol]; conditions: 2200 nM; in DMSO
Description: as §1

[9] = compound: O=P(O)(O)CCC(F)(F)C(F)(F)C(F)(F)C(F)(F)C(F)(F)C(F)(F)C(F)(F)C(F)(F)F [((Perfluorooctyl)ethyl)phosphonic acid]; conditions: 2200 nM; in DMSO
Description: as §1

[10] = compound: O=C(O)C(F)(F)C(F)(F)F [Perfluoropropanoic acid]; conditions: 2200 nM; in DMSO
Description: as §1

[11] = compound: O=C(O)C=CC(F)(C(F)(F)F)C(F)(F)F [3-(Perfluoroisopropyl)-2-propenoic acid]; conditions: in DMSO
Description: as §1

[12] = compound: O=C(O)C(F)(F)C(F)(F)OC(F)(F)F [Perfluoro-3-methoxypropanoic acid]; conditions: 2200 nM; in DMSO
Description: as §1

[13] = compound: O=C(O)C(F)(F)OC(F)(F)C(F)(F)OC(F)(F)C(=O)O [Perfluoro-3,6-dioxaoctane-1,8-dioic acid]; conditions: 2200 nM; in DMSO
Description: as §1

[14] = compound: C=C(C)C(=O)OCC(F)(F)C(F)(F)C(F)(F)F [2,2,3,3,4,4,4-Heptafluorobutyl methacrylate]; conditions: 2200 nM; in DMSO
Description: as §1

[15] = compound: O=C(O)C(F)(F)C(F)(F)C(F)(F)C(F)(F)C(F)(F)C(F)(F)C(F)(F)C(F)(F)C(F)(F)C(F)(F)F [Perfluoroundecanoic acid]; conditions: in DMSO
Description: as §1

[16] = compound: O=C(O)C(F)(F)OC(F)(F)C(F)(F)OC(F)(F)C(F)(F)C(F)(F)C(F)(F)F [Perfluoro-3,6-dioxadecanoic acid]; conditions: 2200 nM; in DMSO
Description: as §1

[17] = compound: O=C(O)C(F)(F)C(F)(F)C(F)(F)F [Perfluorobutanoic acid]; conditions: 2200 nM; in DMSO
Description: as §1

[18] = compound: OCC(F)(F)C(F)(F)C(F)(F)C(F)(F)C(F)(F)C(F)(F)C(F)(F)C(F)(F)C(F)(F)C(F)(F)C(F)(F)F [11:1 Fluorotelomer alcohol]; conditions: in DMSO
Description: as §1

## LPS:CD69
[1]; 740 nM
  level (log10): 0.0115 ± 0.016
[1]; 2200 nM
  level (log10): -0.0225 ± 0.021
[1]; 6700 nM
  level (log10): -0.0145 ± 0.026
[1]; 20000 nM
  level (log10): -0.0065 ± 0.063
[2]
  level (log10): -0.002 ± 0.021
[3]
  level (log10): -0.0105 ± 0.026
[4]
  level (log10): -0.0045 ± 0.0021
[5]
  level (log10): -0.002 ± 0.0028
[6]; 740 nM
  level (log10): -0.0165 ± 0.11
[6]; 2200 nM
  level (log10): -0.051 ± 0.035
[6]; 6700 nM
  level (log10): -0.0105 ± 0.033
[6]; 20000 nM
  level (log10): 0.037 ± 0.0057
[7]
  level (log10): -0.02 ± 0.071
[8]
  level (log10): -0.001 ± 0.1
[9]
  level (log10): -0.0325 ± 0.011
[10]
  level (log10): 0.021 ± 0.03
[11]; 2200 nM
  level (log10): -0.0425 ± 0.028
[11]; 6700 nM
  level (log10): -0.0365 ± 0.025
[11]; 20000 nM
  level (log10): -0.0375 ± 0.00071
[11]; 60000 nM
  level (log10): -0.0255 ± 0.023
[12]
  level (log10): 0.003 ± 0.0085
[13]
  level (log10): 0.004 ± 0.025
[14]
  level (log10): 0.0015 ± 0.0035
[15]; 740 nM
  level (log10): 0.062 ± 0.016
[15]; 2200 nM
  level (log10): -0.0005 ± 0.0035
[16]
  level (log10): -0.0035 ± 0.0035
[17]
  level (log10): -0.0155 ± 0.091
[18]; 370 nM
  level (log10): 0.012 ± 0.023
[18]; 1100 nM
  level (log10): 0.006 ± 0.021
[18]; 3300 nM
  level (log10): 0.004
[18]; 10000 nM
  level (log10): -0.003 ± 0.031

## HDF3CGF:CXCL10/IP-10
[1]; 740 nM
  level (log10): -0.0245 ± 0.028
[1]; 2200 nM
  level (log10): 0.002 ± 0.0042
[1]; 6700 nM
  level (log10): -0.0265 ± 0.0035
[1]; 20000 nM
  level (log10): -0.0645 ± 0.03
[2]
  level (log10): -0.0085 ± 0.015
[3]
  level (log10): -0.128 ± 0.0085
[4]
  level (log10): -0.033 ± 0.014
[5]
  level (log10): -0.0215 ± 0.022
[6]; 740 nM
  level (log10): 0.0005 ± 0.023
[6]; 2200 nM
  level (log10): -0.013 ± 0.0014
[6]; 6700 nM
  level (log10): 0.0025 ± 0.0021
[6]; 20000 nM
  level (log10): -0.026 ± 0.0071
[7]
  level (log10): 0.0025 ± 0.022
[8]
  level (log10): -0.0085 ± 0.00071
[9]
  level (log10): 0.073 ± 0.0028
[10]
  level (log10): 0.0075 ± 0.028
[11]; 2200 nM
  level (log10): 0.005 ± 0.079
[11]; 6700 nM
  level (log10): -0.007 ± 0.034
[11]; 20000 nM
  level (log10): 0.0025 ± 0.035
[11]; 60000 nM
  level (log10): -0.001 ± 0.027
[12]
  level (log10): -0.0125 ± 0.0021
[13]
  level (log10): -0.0095 ± 0.022
[14]
  level (log10): -0.0015 ± 0.044
[15]; 740 nM
  level (log10): -0.013 ± 0.0071
[15]; 2200 nM
  level (log10): -0.0085 ± 0.0021
[16]
  level (log10): -0.0385 ± 0.028
[17]
  level (log10): 0 ± 0.0071
[18]; 370 nM
  level (log10): -0.0165 ± 0.005
[18]; 1100 nM
  level (log10): -0.0435 ± 0.015
[18]; 3300 nM
  level (log10): -0.0725 ± 0.0064
[18]; 10000 nM
  level (log10): -0.039 ± 0.02
